According to patent US7468449B2, “Phenyl-furan compounds as vitamin D receptor modulators” (Eli Lilly and Company, priority 2003, dated 2008):
Some entries of the source have several records that differ or are many. Only these are listed. There may be further records. Results that share an entry appear to be repeats (runs, samples, wells or individuals).

System: rat osteocalcin promoter
Experiment: OCN (osteocalcin) promoter assay
Assay type: cell-based
Conditions: read-out: OCN Promoter EC50; RG-15 (ROS 17/2.8) cells, 48 hr treatment; Table 1

SMILES | EC50
CCCc1cc(C(CC)(CC)c2ccc(C(=O)N(C)C)o2)ccc1OCC(O)C(C)(C)C (single isomer, unassigned) | 0.5 nM and 0.1 nM
CCc1cc(C(CC)(CC)c2ccc(C(=O)N(C)C)o2)ccc1OCC(O)C(C)(C)C (single isomer, unassigned) | 1.6 nM and 0.5 nM
